Assay results as given in patent US20230301998A1, “METHODS AND COMPOSITIONS FOR INDUCTION OF ANTITUMOR IMMUNITY” (Sanford Burnham Prebys Medical Discovery Institute, priority 2020, published 2023).
Some entries share one result that the patent states for a list of compounds.

Test system: B16F10 cells
Assay: B16F10 syngeneic melanoma tumor model in C57BL/6 mice (tumor volume, response, survival, immune phenotyping)
Format: in vivo, mouse
Details: B16 or YUMM1.7 models, FIGS. 17E-F; number of mice
Protocol: Animal experiments. All animal experiments were conducted with approval of the Institutional Animal Care and Use Committee of Sanford Burnham Prebys Medical Discovery Institute (AUF#18-044). The murine melanoma lines B16F10, YUMM1.7 , and YUMMER1.7 were injected subcutaneously (2.0×10^5 cells of B16F10 or YUMM1.7; 4.0 ×10^5 cells of YUMMER1.7) into the lower right flank of 6-8-week-old male C57BL/6 (B16F10, YUMM1.7, YUMMER1.7) or Nod-Scid-Gamma (NSG) (B16F10, YUMMER1.7) mice. To induce transduced inducible shPRMT5, doxycycline (10 mg/ml, Fisher Bioreagents) was prepared in methylcellulose solution (0.5% hydroxylmethylcellulose, 0.2% Tween80) and administered to mice (0.2 ml, oral gavage, QD)Tumor sizes were monitored using calipers. At indicated time points, tumors were collected, 21 weighed and assessed for immune phenotypes using flow cytometry or immunofluorescence. […] The efficiency of depletion was assessed using flow cytometry of blood samples collected at day 8 after tumor inoculation. […]
For immune phenotyping, B16F10 tumors were collected and processed by chopping and mincing using a tube-secured cell strainer (70 p.m poresize, Falcon) to prepare single cells for flow cytometry. […] Stained cells were fixed in 1% formaldehyde (Sigma) in PBS (pH7.4) for 15 min at 4° C. and analyzed with BD LSRFortessa (BD Biosciences) flow cytometry. […] Cells were fixed and analyzed as above. […]

CC(=O)N1CCC(Nc2cc(C(=O)NC[C@H](O)CN3CCc4ccccc4C3)ncn2)CC1 [GSK3326595]
responders (tumor growth inhibition) with monotherapy: 1-2
